Test results reported in patent publication US20130133090A1.
Results are given in words; binding and its absence hold for the method and conditions named. Binding seen in cells or lysates may run through a third protein. Some binding calls cover weakened binding; strength is not graded here.

Sequences of proteins named here, by UniProt entry; tags and fusion partners are left off. Residues count along the entry.
UniProt P12023, residues 18-770: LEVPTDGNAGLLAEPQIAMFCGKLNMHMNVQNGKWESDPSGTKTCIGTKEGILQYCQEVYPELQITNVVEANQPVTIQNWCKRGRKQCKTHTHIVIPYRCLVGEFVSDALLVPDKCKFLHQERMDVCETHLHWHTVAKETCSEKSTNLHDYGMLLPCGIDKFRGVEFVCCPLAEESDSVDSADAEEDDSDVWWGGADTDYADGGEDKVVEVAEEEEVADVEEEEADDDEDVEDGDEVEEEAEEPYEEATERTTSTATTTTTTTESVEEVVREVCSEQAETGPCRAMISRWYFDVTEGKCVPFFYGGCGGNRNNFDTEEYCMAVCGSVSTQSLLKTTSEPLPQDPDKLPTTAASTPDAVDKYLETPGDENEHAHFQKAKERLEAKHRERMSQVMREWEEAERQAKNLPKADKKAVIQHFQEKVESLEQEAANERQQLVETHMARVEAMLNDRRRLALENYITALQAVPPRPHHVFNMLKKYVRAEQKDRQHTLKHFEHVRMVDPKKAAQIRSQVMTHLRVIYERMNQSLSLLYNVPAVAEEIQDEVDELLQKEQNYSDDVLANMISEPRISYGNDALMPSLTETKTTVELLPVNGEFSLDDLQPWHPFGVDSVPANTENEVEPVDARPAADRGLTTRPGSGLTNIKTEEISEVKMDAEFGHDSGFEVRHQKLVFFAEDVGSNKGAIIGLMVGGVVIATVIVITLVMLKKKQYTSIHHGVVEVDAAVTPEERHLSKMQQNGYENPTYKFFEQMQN

How the values were obtained:
[1] = molecular target: endogenous APP of mouse brain (mouse) (UniProt P12023); test: co-immunoprecipitation from mouse brain lysates with αBri2, blot for APP
[2] = molecular target: endogenous APP of mouse brain (mouse) (UniProt P12023); test: co-immunoprecipitation from mouse brain membrane extracts with αBRI2, blot for APP

B1: mouse Bri2 protein (endogenous) (protein, UniProt O89051 1-266, looked up)
chain: MVKVTFNSALAQKEAKKDEPKSSEEALIVPPDAVAVDCKDPGDVVPVGQRRAWCWCMCFGLAFMLAGVILGGAYLYKYFALQPDDVYYCGLKYIKDDVILNEPSADAPAARYQTIEENIKIFEEDAVEFISVPVPEFADSDPANIVHDFNKKLTAYLDLNLDKCYVIPLNTSIVMPPKNLLELLINIKAGTYLPQSYLIHEHMVITDRIENVDNLGFFIYRLCHDKETYKLQRRETIRGIQKREASNCFTIRHFENKFAVETLICS
- binding [1]: binds
- binding [2]: binds
